Reference: EP0585300B1 (priority 1991, dated 1997)
Part of at least one peptide drawing is inferred or uncertain, most often the ends.

Legend:
flexor reflex = experiment: Electrophysiological study: intrathecal galanin-induced facilitation of the flexor reflex; format: in vivo, rats; conditions: 5-10 min after 30 pmol galanin
pancreatic beta-cells = experiment: Galanin-inhibited glucose-induced insulin release (procedure of Ahrén et al.); format: cell-based, mice (ob/ob); conditions: for Insulin release in the presence of glucose, galanin and M15: galanin 10^-7 M, glucose 8.3 mM
[1] = system: scopolamine-induced release of ACh; experiment: Microdialysis: scopolamine-induced release of ACh in vivo, ventral hippocampus; parameters: species or system rat; conditions: M15 3.12 nmoles i.c.v. 2 min before scopolamine 0.3 mg/kg s.c.; n=2 rats

For `CSCC[C@H](NC(=O)[C@H](CC(C)C)NC(=O)CNC(=O)[C@H](Cc1ccccc1)NC(=O)[C@H](Cc1ccccc1)NC(=O)[C@H](CCC(N)=O)NC(=O)[C@H](CCC(N)=O)NC(=O)[C@@H]1CCCN1C(=O)CNC(=O)[C@H](CC(C)C)NC(=O)[C@H](CC(C)C)NC(=O)[C@H](Cc1ccc(O)cc1)NC(=O)CNC(=O)[C@H](C)NC(=O)[C@H](CO)NC(=O)[C@H](CC(N)=O)NC(=O)[C@H](CC(C)C)NC(=O)[C@@H](NC(=O)[C@H](Cc1c[nH]c2ccccc12)NC(=O)CN)[C@@H](C)O)C(N)=O` [M15, Galanin(1-12)-Pro-Substance P(5-11)], the “% antagonism (percentage reduction of the peak facilitatory effect of galanin)” value (flexor reflex; M-15 30 pmol i.t., n=4) was 35.8±20.7%, the “% antagonism (percentage reduction of the peak facilitatory effect of galanin)” value (flexor reflex; M-15 300 pmol i.t., n=4) was 79.3±8.4% and the “% antagonism (percentage reduction of the peak facilitatory effect of galanin)” value (flexor reflex; M-15 3 nmol i.t., n=3) was 93.0±3.4%. For the same compound, the “galanin-induced inhibition of insulin release” value (pancreatic beta-cells; M15 10^-6 M - 10^-9 M) was “dose-dependently counteracted”, the “Insulin release in the presence of glucose, galanin and M15” value (“Insulin release in the presence” below) (pancreatic beta-cells; M15 at 10^-6 M, N=16) was 28±2 µU/ml and the “Insulin release in the presence” value (pancreatic beta-cells; M15 at 10^-7, N=16) was 17±4 µU/ml. For the same compound, the “Insulin release in the presence” value (pancreatic beta-cells; M15 at 10^-8, N=16) was 10±3 µU/ml, the “Insulin release in the presence” value (pancreatic beta-cells; M15 at 10^-9 M) was “without effect” and the “ACh release (pmoles of ACh in the 20 min fraction at the peak of the scopolamine-effect)” value [1] was 9.4 pmol.
